Laboratory results: PubChem BioAssay AID1259308 (NCATS, 2017)
The deposit covers about 59,000 reagents; below is an unselected part. In the full data, about 1,510 (2.6%) were called active. 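Calls use total luciferase alone and ignore viability, so some active siRNAs may act by altering cell number.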 A number with no mark means an inactive call. Reagents against one gene are numbered here. Not all columns of the deposit are shown. Reagent sequences are not shown.

- Screen: 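Candidate targets for better recombinant protein yield in mammalian cells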 (primary screen)
- Cells: human HEK293 embryonic kidney cells stably expressing firefly luciferase (HEK-CMV-Luc2-Hygro)
- Knock-down reagent: single siRNA against human genes, 0.8 pmol siRNA per well
- Time to read-out: 72 h
- Read-out: 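Luciferase light (ONE-Glo) measured on one replicate plate set and viability (CellTiter-Glo) on the other, scaled to a negative control siRNA, with robust z-scores and luciferase per cell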
- Direction: total luciferase, z-score: higher = more reporter protein produced
- Hit rule: 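Active when the median/MAD z-score for overall luciferase is greater than 3; a gene was taken forward for validation with new siRNAs if at least two of its three siRNAs passed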
- Meaning of the calls: active = raised luciferase; inactive = no rise

For PLLP (plasmolipin) #1 the deposit lists total luciferase, z-score 2.83. PLLP (plasmolipin) #2 showed total luciferase, z-score 0.298. For PLLP (plasmolipin) #3, the values are total luciferase, z-score -0.0732. For ZDHHC19 (zDHHC palmitoyltransferase 19) #1, the values are total luciferase, z-score -0.874. ZDHHC19 (zDHHC palmitoyltransferase 19) #2 showed total luciferase, z-score -0.524. For ZDHHC19 (zDHHC palmitoyltransferase 19) #3, the values are total luciferase, z-score -0.91.

After knock-down of DENND4B (DENN domain containing 4B) #1, the record shows total luciferase, z-score -1.8. DENND4B (DENN domain containing 4B) #2 scored total luciferase, z-score 0.866. With knock-down of DENND4B (DENN domain containing 4B) #3, the screen gave total luciferase, z-score 1.88. Knock-down of MBP (myelin basic protein) #1 came out at: total luciferase, z-score -0.084. After knock-down of MBP (myelin basic protein) #2 the results were total luciferase, z-score 0.166. After knock-down of MBP (myelin basic protein) #3, the record shows total luciferase, z-score 0.759.

With knock-down of TRPM1 #1, the screen gave total luciferase, z-score -0.972. TRPM1 #2 gave total luciferase, z-score -0.188. After knock-down of TRPM1 #3 the results were total luciferase, z-score 2.3. With knock-down of PRPF8 (pre-mRNA processing factor 8) #1, the screen gave total luciferase, z-score 2.27. PRPF8 (pre-mRNA processing factor 8) #2 gave total luciferase, z-score 1.47. Depletion of PRPF8 (pre-mRNA processing factor 8) #3 gave: total luciferase, z-score 1.96.

RAD52 (RAD52 DNA repair protein) #1 gave total luciferase, z-score -1.47. Knock-down of RAD52 (RAD52 DNA repair protein) #2 gave: total luciferase, z-score -1.42. RAD52 (RAD52 DNA repair protein) #3 gave total luciferase, z-score -0.334. After knock-down of EPB41L4B (erythrocyte membrane protein band 4.1 like 4B) #1, the record shows total luciferase, z-score -0.305. Knock-down of EPB41L4B (erythrocyte membrane protein band 4.1 like 4B) #2 resulted in: total luciferase, z-score 0.11. Depletion of EPB41L4B (erythrocyte membrane protein band 4.1 like 4B) #3 gave: total luciferase, z-score -1.53.

3 entries already listed, ordered by “total luciferase, z-score”, descending.
TRPM1 #3: total luciferase, z-score = 2.3
TRPM1 #2: total luciferase, z-score = -0.188
TRPM1 #1: total luciferase, z-score = -0.972

The list goes on:
Knock-down of KIFC2 (kinesin family member C2) #1 resulted in: total luciferase, z-score -0.109. KIFC2 (kinesin family member C2) #2 showed total luciferase, z-score 2.16. For KIFC2 (kinesin family member C2) #3, the entry reads total luciferase, z-score -0.331. LOC729968 (spore coat protein SP96) #1 showed total luciferase, z-score 2.29. Knock-down of LOC729968 (spore coat protein SP96) #2 came out at: total luciferase, z-score -0.883. LOC729968 (spore coat protein SP96) #3 scored total luciferase, z-score 0.72.

Knock-down of LOC729968 (spore coat protein SP96) #4 resulted in: total luciferase, z-score 2.11. LOC729968 (spore coat protein SP96) #5 showed total luciferase, z-score 0.462. With knock-down of LOC729968 (spore coat protein SP96) #6 the results were total luciferase, z-score 0.114. Against TMEM169 (transmembrane protein 169) #1 the deposit lists total luciferase, z-score -1.78. TMEM169 (transmembrane protein 169) #2 scored total luciferase, z-score 1.72. TMEM169 (transmembrane protein 169) #3 showed total luciferase, z-score -0.777.

Silencing of LINC01300 (long independently transcribed non-coding RNA 1300) #1 gave: total luciferase, z-score 1.47. LINC01300 (long independently transcribed non-coding RNA 1300) #2 scored total luciferase, z-score -0.156. LINC01300 (long independently transcribed non-coding RNA 1300) #3 scored total luciferase, z-score 0.268. For RAP1GDS1 (Rap1 GTPase-GDP dissociation stimulator 1) #1 the deposit lists total luciferase, z-score -0.0859. For RAP1GDS1 (Rap1 GTPase-GDP dissociation stimulator 1) #2 the deposit lists total luciferase, z-score 0.3. With knock-down of RAP1GDS1 (Rap1 GTPase-GDP dissociation stimulator 1) #3 the results were total luciferase, z-score 0.614.
